From PubChem BioAssay AID1487 (National Center for Advancing Translational Sciences (NCATS), 2009)
Where “and” joins values, the source holds several entries; their conditions need not be identical. Equal entries are not always repeated. The list shows a part of the results. The main result of the screen is listed elsewhere. These columns were measured beside it and carry no call. Compounds called inactive in the main read-out are mostly missing here. The note in brackets gives the kind of curve behind each potency; many fits are weak.

Experiment: qHTS Assay for Modulators of Lamin A Splicing
Conditions: HeLa LMNA splicing GFP/RFP minigene ratio, 48 h
Method in brief: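 S3 HeLa stable clones carrying a lamin A-EGFP splicing minigene plus DsRed2 were seeded at 600 cells/well in Opti-MEM with 2% FBS, pin-dosed and incubated 48 h at 37°C. Acumen cytometry (488 nm) gave the GFP/RFP total-intensity ratio.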

[1] = measured here: GFP splicing reporter channel
[2] = measured here: RFP viability control channel

SMILES | AC50 [1] | AC50 [2]
COc1ccc(OC)c(-c2cc(C(=O)Nc3cc(C)n(Cc4ccc(Cl)cc4)n3)no2)c1 | 4.47 µM [rising, partial curve] | 3.16 µM [rising, single point]
CN(C)CCOC(C)(c1ccccc1)c1ccccn1 (stereo not drawn) | 5.62 µM [rising, single point] | 
CCOc1ccc(/C=N/NC(=O)Cc2csc(Nc3cccc(C(F)(F)F)c3)n2)c(OCC)c1 | 35.5 µM [falling, single point] | 35.5 µM [falling, single point]
C=CCNC(N)=S | 0.0282 µM [rising, partial curve, poor fit] | 
COC(=O)C1CCN(CC(=O)Nc2sc3c(c2C#N)CCC3)CC1 | 28.2 µM [falling, single point] | 31.6 µM [falling, partial curve]
CCCOc1cccc(-c2cc(C(=O)NNC(=S)NCC)c3ccccc3n2)c1 | 17.8 µM [rising, single point] | 22.4 µM [rising, single point]
Cc1ccc(CN(CC2CCCO2)C(=O)CN2C(=O)C(C(C)C)Oc3ccccc32)o1 (stereo not drawn) |  | 15.8 µM [rising, single point]
CCOC(=O)N1CCN(C(=O)c2oc3ccc(S(=O)(=O)N4CCCCCC4)cc3c2C)CC1 |  | 14.1 µM [rising, single point]
COc1ccc(CN(C)Cc2nc3scc(-c4ccccc4)c3c(=O)[nH]2)cc1OC |  | 17.8 µM [rising, single point]
Cc1[nH]c2ccccc2c1/C=N/Nc1nncn1N | 0.00447 µM [rising, full curve, poor fit] | 
Cc1ccccc1NC(=S)NC1(C)CCS(=O)(=O)C1 (stereo not drawn) |  | 6.31 µM [rising, partial curve, poor fit]
CCCCCCCCCCCCCCC[C@H](O)[C@H](N)CO | 22.4 µM [falling, partial curve, poor fit] | 12.6 µM [falling, partial curve]
CCC1=NN(C(=O)C(=O)Nc2ccccc2OC)C(O)(C(F)(F)F)C1 (stereo not drawn) | 10 µM [falling, single point] | 0.0355 µM [falling, single point]
CCC(=O)Nc1nc(-c2ccc3c(c2)OCCO3)cs1 |  | 20 µM [rising, single point]
Cc1ccc(C)c(NC(=O)c2ccccc2NC(=O)C2CCCO2)c1 (stereo not drawn) |  | 0.01 µM [rising, full curve, poor fit]
CC(NC(=O)c1ccc(CS(=O)(=O)Cc2ccccc2F)o1)c1ccc2c(c1)OCCO2 (stereo not drawn) |  | 35.5 µM [rising, single point]
Fc1ccc(NC(=S)Nc2cccnc2)cc1Cl | 0.0251 µM [falling, full curve, poor fit] | 0.0224 µM [falling, full curve]
COc1ccc(NC(=O)CSc2c3c(nc4ccccc24)CCCC3)c(OC)c1 | 12.6 µM [falling, single point] | 15.8 µM [falling, single point]
COc1ccc(-c2cc(=O)c3cc(OC)ccc3o2)cc1 | 2.82 µM [rising, full curve, poor fit] | 2.82 µM [rising, full curve]

SMILES | AC50 [1] | AC50 [2]
CCOC1CC(C)(C)NC(=S)N1 (stereo not drawn) | 14.1 µM [rising, single point] | 
Cc1c(NS(=O)(=O)c2ccc(NCC3CCCO3)c([N+](=O)[O-])c2)c(=O)n(-c2ccccc2)n1C (stereo not drawn) |  | 0.0316 µM [falling, full curve, poor fit]
O=C(O)c1ccccc1C(=O)NNc1ccc(Cl)cc1Cl |  | 44.7 µM [rising, single point]
COc1cc(OC)c(OC)cc1CN1CCN(c2ccccc2OC)CC1 |  | 35.5 µM [rising, single point]
Cc1cccc(OCCCN2C(=O)C(=O)c3cc(C)ccc32)c1 | 17.8 µM [falling, single point] | 15.8 µM [falling, single point]
Cc1ccc(S(=O)(=O)NCC2CCC(C(=O)NCc3cccnc3)CC2)cc1 (stereo not drawn) | 0.01 µM [falling, full curve, poor fit] | 
c1ccc2c(c1)oc1c(NCc3ccc4c(c3)OCO4)ncnc12 |  | 22.4 µM [rising, single point]
CC(CNC(=O)C1CCN(Cc2cc3ccccc3n2Cc2ccccc2)CC1)c1ccccc1 (stereo not drawn) | 3.98 µM [falling, partial curve] | 0.794 µM [falling, partial curve, poor fit]
COc1ccc(CNC(=O)c2c(F)c(F)c(F)c(F)c2F)cc1 | 31.6 µM [falling, partial curve, poor fit] | 
CCOc1ccccc1NC(=O)CSc1nccn1-c1ccc(Cl)cc1 | 35.5 µM [falling, single point] | 
CCC(=O)Nc1cccc(-c2csc(-c3ccccc3)n2)c1 | 3.98 µM [falling, partial curve, poor fit] | 
O=c1[nH]c(=O)n([C@@H]2C[C@H](O)[C@H](CO)O2)cc1I | 4.47 µM [rising, partial curve] | 
CC(C)N1CCC2(CC1)C(C#N)=C(N)NC(S)=C2C#N |  | 15.8 µM [rising, single point]
C=CCNC(=S)Nc1ccc(Br)cc1F |  | 22.4 µM [rising, single point]
COc1ccc(-c2nc3cnc(Oc4cccc(Cl)c4)nc3n(C[C@H]3CCCO3)c2=O)cc1 | 12.6 µM [falling, partial curve] | 
CCCc1nn2c(=O)cc(COC(=O)c3ccc(NC(=O)C(C)Oc4ccccc4)cc3)nc2s1 (stereo not drawn) |  | 0.631 µM [falling, partial curve, poor fit]
CCCCSCCCNC(=S)Nc1ccccc1C | 35.5 µM [rising, single point] | 31.6 µM [rising, single point]
CC(C)OP(=O)(OC(C)C)C(NC(=O)c1ccc(Br)cc1)c1ccccc1 (stereo not drawn) | 22.4 µM [falling, single point] | 15.8 µM [falling, partial curve]
CCN(C(=O)C1CCN(S(=O)(=O)c2ccc3c(c2)CCCN3C(=O)C2CCC2)CC1)c1cccc(C)c1 |  | 11.2 µM [rising, single point]

Complete entries, looked up by structure:
COc1ccc(CN(C)Cc2nc3scc(-c4ccccc4)c3c(=O)[nH]2)cc1OC in the list: AC50 [2]: 17.8 µM [rising, single point]
Cc1[nH]c2ccccc2c1/C=N/Nc1nncn1N in the list: AC50 [1]: 0.00447 µM [rising, full curve, poor fit]

Continuation.

SMILES | AC50 [1] | AC50 [2]
CCOc1cc(/C=C(\C#N)c2nc(-c3cccs3)c(NC(C)=O)s2)ccc1O |  | 10 µM [rising, partial curve]
COC(=O)CNC(=O)C(Cc1ccccc1)NS(=O)(=O)c1ccc2c(c1)c(=O)n(C)c(=O)n2C (stereo not drawn) |  | 3.98 µM [rising, single point]
O=[N+]([O-])c1ccccc1OCCOCCOc1cccc2cccnc12 |  | 0.0562 µM [rising, full curve, poor fit]
C=C(C)COc1ccc(-c2[nH]ncc2-c2ccc(Br)cc2)c(O)c1 | 20 µM [rising, single point] | 35.5 µM [rising, single point]
Cc1ncc(C[n+]2csc(C)c2C)c(N)n1 | 0.1 µM [rising, full curve, poor fit] | 
COc1cccc(/C=N/NC(=O)C(=O)N/N=C/c2cccc(OC)c2O)c1O | 3.16 µM [falling, partial curve, poor fit] | 5.62 µM [rising, partial curve]
Oc1c(I)cc(Cl)c2cccnc12 | 14.1 µM [falling, single point] and 14.1 µM [rising, partial curve, poor fit] and 11.2 µM [rising, partial curve] | 7.94 µM [falling, single point] and 100 nM [rising, partial curve, poor fit] and 12.6 µM [rising, partial curve]
CCCC12CN3CC(CCC)(CN(C1)C3c1c[nH]c3ccccc13)C2=O (stereo not drawn) | 8.91 µM [falling, partial curve, poor fit] | 8.91 µM [falling, partial curve, poor fit]
CCOC(=O)c1c(NC(=O)COC(=O)CNC(=O)c2ccco2)sc(C(C)=O)c1C | 20 µM [rising, single point] | 
CCCn1c(O)c(N=NC(=O)c2ccco2)c2ccccc21 |  | 7.08 µM [rising, partial curve, poor fit]
CC(=O)NCCOc1ccc2oc3ccccc3c2c1 |  | 31.6 µM [rising, single point]
CCCN1C(=O)/C(=C/c2ccc(N3CCCC3)c(C)c2)NC1=S | 15.8 µM [rising, single point] | 
O=[N+]([O-])c1cc(Cl)ccc1NCCNS(=O)(=O)c1ccccc1 |  | 35.5 µM [rising, single point]
COc1ccc(N2CCN(C(CNS(=O)(=O)c3ccc4c(c3)OCCO4)c3ccco3)CC2)cc1 (stereo not drawn) |  | 12.6 µM [rising, partial curve]
CCCn1c(NCc2ccccc2NS(=O)(=O)c2ccc(C)cc2)nc2ccccc21 |  | 12.6 µM [rising, single point]
CC1=C(C(=O)N2CCCCC2)C2(CCC(C)CC2)OC1=O (stereo not drawn) | 0.0112 µM [falling, full curve, poor fit] | 
O=C(NC1CCCCCC1)c1nnc(Cc2ccc(Cl)cc2)o1 | 0.316 µM [falling, partial curve, poor fit] | 
COC(=O)c1sc2cccc(F)c2c1S(=O)(=O)Nc1cc(OC)cc(OC)c1 |  | 7.08 µM [rising, partial curve]
